Reference: patent US6403647B1, “Pulsed administration of compositions for the treatment of blood disorders” (priority 1996, dated 2002)
At least one structure is not confirmed: it was looked up by name or label, or the drawing left a doubt.

Legend:
[1] = tested on: Friend leukemia cells; conditions: cultured Friend leukemia cells; cited from earlier work
[2] = Globin chain synthesis at varied butyrate infusion rates in patients; assay type: in vivo, human
Description: Infusion rates were varied between 20 to 150 mg per kg per hour in several patients who have large proportions of circulating nucleated erythroblasts. Globin chain synthesis was assayed at different time points before and following drug infusions.

**Q.** Which results are given for CCCC(=O)O [butyrate]?
**A.** hemoglobin synthesis [1]: induced hemoglobin synthesis; γ and β globin chain synthesis ([2]; high doses, patient with β+ thalassemia): suppressed both γ and β globin chain synthesis; β globin synthesis ([2]; infusion at 150 mg per kg per hour): completely suppressed β globin synthesis; γ globin synthesis ([2]; lower infusion rates, patient with β+ thalassemia): increased γ globin synthesis
